Data reported in patent US20250127898A1, “PHOTODYNAMIC THERAPY AND DIAGNOSIS” (RMW CHO Group Limited, priority 2021, published 2025).

Tested on: Human ovarian cancer cell line SKOV3
Assay: Therapeutic index calculated using phototoxicity IC90 vs dark toxicity IC10
Type: cell-based
Settings: phototoxicity IC90 vs dark toxicity IC10, SKOV3 cells (IC90 by LED for * compounds)

Row | Molecule | Therapeutic Index
1 | CCC1=C(C)c2cc3[nH]c(cc4nc(c(C)c5cc(C)c(cc1n2)[nH]5)[C@@H](CCCO)[C@@H]4C)c(C)c3CC [Compound 20, Reduced Phyllochlorin 3-hydroxypropyl] | 92.46
2 | CCC1=C(C)c2cc3[nH]c(cc4nc(c(C)c5cc(C)c(cc1n2)[nH]5)[C@@H](CCC(=O)N[C@@H](CCCCN)C(=O)N[C@@H](CCCCN)C(=O)N[C@@H](CCCCN)C(=O)N[C@@H](CCCCN)C(=O)N[C@@H](CCCCN)C(=O)N(C)C)[C@@H]4C)c(C)c3CC [Compound 26, Reduced Phyllochlorin lysyl-lysyl-lysyl-lysyl-lysyl Dimethylamide Propylamide Pentahydrochloride] (X1-KKKKK-NMe2) | 29.70
3 | CCC1=C(C)c2cc3[nH]c(cc4nc(c(C)c5cc(C)c(cc1n2)[nH]5)[C@@H](CCC(=O)N(C)CCC[S+]([O-])[C@@H]1O[C@H](CO)[C@@H](O)[C@H](O)[C@H]1O)[C@@H]4C)c(C)c3CC (stereo partly drawn) [Compound 17, Reduced Phyllochlorin β-D-1-thioglucose-N-methylpropylamide sulfoxide] | 27.31
4 | CCC1=C(C)c2cc3[nH]c(cc4nc(c(C)c5cc(C)c(cc1n2)[nH]5)[C@@H](CCC(=O)N[C@H]1C(O)O[C@H](CO)[C@@H](O)[C@@H]1O)[C@@H]4C)c(C)c3CC (stereo partly drawn) [Compound 3, Reduced Phyllochlorin 2-deoxyglucosamine-propylamide] | 310.00
5 | Phyllochlorin sodium salt [reference compound] | 62.74
6 | CCC1=C(C)c2cc3[nH]c(cc4nc(c5c6[nH]c(cc1n2)c(C)c6C(=O)OC5)[C@@H](CCC(=O)O)[C@@H]4C)c(C)c3CC [Compound 39, Reduced Chlorin K] | 46.80
7 | CCC1=C(C)c2cc3[nH]c(cc4nc(c(C)c5cc(C)c(cc1n2)[nH]5)[C@@H](CCC(=O)N(C)CCCO[C@@H]1O[C@H](CO)[C@@H](O)[C@H](O)[C@H]1O)[C@@H]4C)c(C)c3CC [Compound 9, Reduced Phyllochlorin β-D-glucosyl-N-methylpropylamide] | 130.41
8 | Reduced Phyllochlorin Methyl Ester [Compound 6] | 31.40
9 | C=Cc1c(C)c2cc3nc(c(C)c4[nH]c(cc5nc(cc1[nH]2)C(C)=C5CC)c(C)c4C(=O)O)[C@@H](CCC(=O)O)[C@@H]3C [Chlorin e4 disodium, chlorin e4 disodium, reference compound] | 1.89
10 | CCC1=C(C)c2cc3[nH]c(cc4nc(c(C)c5cc(C)c(cc1n2)[nH]5)[C@@H](CCC[P+](c1ccccc1)(c1ccccc1)c1ccccc1)[C@@H]4C)c(C)c3CC [Compound 27, Reduced Phyllochlorin 3-triphenylphosphonium Propyl Iodide] | 241.09
11 | CCC1=C(C)c2cc3[nH]c(cc4nc(c(C)c5cc(C)c(cc1n2)[nH]5)[C@@H](CCC(=O)N(C)CCOCCO[C@@H]1O[C@H](CO)[C@@H](O)[C@H](O)[C@H]1O)[C@@H]4C)c(C)c3CC [Compound 5, Reduced Phyllochlorin β-D-1-glucose-N-methyl-2-ethoxy-N-ethanamine] | 180.78
12 | Reduced Phyllochlorin N-(2-(2-hydroxyethoxy)ethyl)-N-methylpropylamide [Compound 7] | 725.00
13 | CCC1=C(C)c2cc3[nH]c(cc4nc(c(C)c5cc(C)c(cc1n2)[nH]5)[C@@H](CCC(=O)N(C)CCCCCCCCCC[P+](c1ccccc1)(c1ccccc1)c1ccccc1)[C@@H]4C)c(C)c3CC [Compound 21, Reduced Phyllochlorin ((methylamino)-10-decyl)triphenylphosphonium Chloride Propylamide] | 66.59
14 | CCC1=C(C)c2cc3[nH]c(cc4nc(c(C)c5cc(C)c(cc1n2)[nH]5)[C@@H](CCC(=O)N[C@H]1C(O)O[C@H](CO)[C@H](O)[C@@H]1O)[C@@H]4C)c(C)c3CC (stereo partly drawn) [Compound 24, Reduced Phyllochlorin 2-deoxy-D-galactosamine-propylamide] | 143.08
15 | CCC1=C(C)c2cc3[nH]c(cc4nc(c(C)c5cc(C)c(cc1n2)[nH]5)[C@@H](CCC(=O)N(C)CCOCCOCC[n+]1ccccc1)[C@@H]4C)c(C)c3CC [Compound 13, Reduced Phyllochlorin N-(2-(2-(2-pyridiniumethoxy)ethoxy)ethyl)-N-methyl-3-amide chloride] | 210.00
16 | CCC1=C(C)c2cc3[nH]c(cc4nc(c(C)c5[nH]c(cc1n2)c(C)c5C(=O)O)[C@@H](CCC(=O)O)[C@@H]4C)c(C)c3CC [Compound 36, Reduced Chlorin e4] | 2.80
17 | C=Cc1c(C)c2cc3nc(c(CC(=O)N[C@@H](CC(=O)O)C(=O)O)c4[nH]c(cc5nc(cc1[nH]2)C(C)=C5CC)c(C)c4C(=O)O)[C@@H](CCC(=O)O)[C@@H]3C [Talaporfin sodium, reference compound] | 0.49

Row | Molecule | Therapeutic Index
18 | CCC1=C(C)c2cc3[nH]c(cc4nc(c(C)c5cc(C)c(cc1n2)[nH]5)[C@@H](CCC(=O)N(C)CCCCCO)[C@@H]4C)c(C)c3CC [Compound 23, Reduced Phyllochlorin N-5-hydroxypentyl-N-methyl Propylamide] | 70.94
19 | CCC1=C(C)c2cc3[nH]c(cc4nc(c(C)c5cc(C)c(cc1n2)[nH]5)[C@@H](CCC(=O)N(C)CCCS[C@@H]1O[C@H](CO)[C@@H](O)[C@H](O)[C@H]1O)[C@@H]4C)c(C)c3CC [Compound 4, Reduced Phyllochlorin β-D-1-thioglucose-N-methylpropylamide] | 40.88
20 | CCC1=C(C)c2cc3[nH]c(cc4nc(c(C)c5cc(C)c(cc1n2)[nH]5)[C@@H](CCCN)[C@@H]4C)c(C)c3CC [Compound 18, Reduced Phyllochlorin 3-aminopropyl] | 394.60
21 | CCC1=C(C)c2cc3[nH]c(cc4nc(c(C)c5cc(C)c(cc1n2)[nH]5)[C@@H](CCC(=O)N(C)CCOCCOCCO)[C@@H]4C)c(C)c3CC [Compound 12, Reduced Phyllochlorin N-(2-(2-(2-hydroxyethoxy)ethoxy)ethyl)-N-methyl-3-amide] | 76.60
22 | Phyllochlorin free acid [reference compound] | 31.40
23 | CCC1=C(C)c2cc3[nH]c(cc4nc(c(C)c5cc(C)c(cc1n2)[nH]5)[C@@H](CCC(=O)N(C)CCO)[C@@H]4C)c(C)c3CC [Compound 19, Reduced Phyllochlorin N-2-hydroxyethyl-N-methyl propylamide] | 261.31
24 | CCC1=C(C)c2cc3[nH]c(cc4nc(c(C)c5cc(C)c(cc1n2)[nH]5)[C@@H](CCC(=O)[O-])[C@@H]4C)c(C)c3CC.[Na+] [Compound 2, Reduced Phyllochlorin Sodium Salt] | 673.80
25 | Reduced Phyllochlorin [Compound 1] | 59.38
26 | Reduced Phyllochlorin N-(2-(2-(2-picolinylethoxy)ethoxy)ethyl)-N-methyl-3-amide chloride [Compound 28] | 46.32
27 | CCC1=C(C)c2cc3[nH]c(cc4nc(c5c6[nH]c(cc1n2)c(C)c6C(=O)OC5)[C@@H](CCC(=O)N(C)CCCS[C@@H]1O[C@H](CO)[C@@H](O)[C@H](O)[C@H]1O)[C@@H]4C)c(C)c3CC [Compound 40, Reduced Chlorin K β-D-1-thioglucose-N-methylpropylamide] | 14.09
28 | CCC1=C(C)c2cc3[nH]c(cc4nc(c(C)c5cc(C)c(cc1n2)[nH]5)[C@@H](CCC(=O)N[C@@H]1C(O)O[C@H](CO)[C@@H](O)[C@@H]1O)[C@@H]4C)c(C)c3CC (stereo partly drawn) [Compound 15, Reduced Phyllochlorin 2-deoxy-D-mannosamine-propylamide] | 77.14
29 | CCC1=C(C)c2cc3[nH]c(cc4nc(c(C)c5cc(C)c(cc1n2)[nH]5)[C@@H](CCC(=O)N(C)CCOCCOCCOCCOCCOCCOC)[C@@H]4C)c(C)c3CC [Compound 14, Reduced Phyllochlorin N-methyl-N-3,6,9,12,15,18-hexaoxanonadecyl propylamide] | 24.47
30 | CCC1=C(C)c2cc3[nH]c(cc4nc(c(C)c5cc(C)c(cc1n2)[nH]5)[C@@H](CCC(=O)N(C)CCCO)[C@@H]4C)c(C)c3CC [Compound 22, Reduced Phyllochlorin N-3-hydroxypropyl-N-methyl Propylamide] | 103.52
31 | CCC1=C(C)c2cc3[nH]c(cc4nc(c(C)c5cc(C)c(cc1n2)[nH]5)[C@@H](CCC(=O)N(C)CCOCCOCC[P+](c1ccccc1)(c1ccccc1)c1ccccc1)[C@@H]4C)c(C)c3CC [Compound 16, Reduced Phyllochlorin N-(2-(2-(2-triphenylphosphoniumethoxy)ethoxy)ethyl)-N-methyl-3-amide chloride] | 291.36
32 | CCC1=C(C)c2cc3[nH]c(cc4nc(c(C)c5cc(C)c(cc1n2)[nH]5)[C@@H](CCC(=O)N[C@@H](CCCCN)C(=O)N(C)C)[C@@H]4C)c(C)c3CC [Compound 31, Reduced Phyllochlorin N-Lysyl Dimethylamide Propylamide Hydrochloride] | 804.55
33 | CCC1=C(C)c2cc3[nH]c(cc4nc(c(C)c5cc(C)c(cc1n2)[nH]5)[C@@H](CCC(=O)N(C)CCCOCCC[P+](c1ccccc1)(c1ccccc1)c1ccccc1)[C@@H]4C)c(C)c3CC [Compound 11] | 1,449.00

Counter-ions that a name gives are not always drawn. Where a SMILES comes first, the peptide text is derived from it. The star is where a group is joined. X1 = CCC1=C(C)c2cc3[nH]c(cc4nc(c(C)c5cc(C)c(cc1n2)[nH]5)[C@@H](CCC(=O)*)[C@@H]4C)c(C)c3CC
